From PubChem BioAssay AID2685 (National Center for Advancing Translational Sciences (NCATS), 2010)
The other results are listed elsewhere or left out. These are further read-outs of the screen, such as a control signal, another cell line or another target. No call is given for them. Compounds called inactive in the main read-out are mostly missing here. Potencies come from curve fits of mixed quality, noted in brackets.

Experiment: qHTS Assay for Lipid Storage Modulators in Drosophila S3 Cells;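 as to cell number change: cells counted by Cell Tracker Red CMTPX staining in the red channel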
Settings: BODIPY lipid droplet fluorescence, 18-24 h; for cell number change: measured here: cell count max response, cells fed with added oleic acid
Outline: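 Drosophila S3 cells loaded with oleic acid (400 uM, as added) and compounds at several concentrations; lipid droplets imaged by 488-nm laser-scanning cytometry, 500–530 nm intensity and object ratio to cell channel. Percent activity normalized to 20 uM Triacsin C.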

[1] = measured here: lipid fluorescence (Fed channel) AC50, cells fed with added oleic acid
[2] = measured here: cell number channel AC50, cells fed with added oleic acid

SMILES	cell number change [%]	AC50 [1]	AC50 [2]
COc1ccc(Cl)cc1N1C(=O)c2cccnc2C1=O	4.93	6.51 µM [rising, single point]	–
Cc1ccc(NC(=O)c2c(C(F)(F)F)nn(C)c2SCc2ccc(Cl)cc2)cc1C	0.0649	–	–
O=C(CN1CCN(C(=O)C2CC2)CC1)Nc1cc(C(F)(F)F)cc(C(F)(F)F)c1	-6.47	16.4 µM [falling, single point]	–
O=C(NC1(C(F)(F)F)NC(=O)N(CC2CCCCC2)C1=O)c1ccco1 (stereo not drawn)	1.82	–	–
COc1ccc(CCn2c(-c3ccc(F)cc3)nc3c(c(=O)c4ccccc4n3C)c2=O)cc1OC	-24.1	16.4 µM [falling, single point]	–
COC(=O)C(C)Sc1ccc2nnc(CCNS(=O)(=O)c3ccc(C)cc3)n2n1 (stereo not drawn)	0.283	–	0.731 µM [falling, single point]
CC1CCc2c(sc3ncn(CCO)c(=O)c23)C1 (stereo not drawn)	99	20.6 µM [rising, partial curve]	16.4 µM [rising, partial curve]
COc1ccc(-c2ccc(SCC(=O)NCC3CCCO3)nn2)cc1OC (stereo not drawn)	63.3	–	–
CCN(CC)C(=O)c1[nH]cnc1C(=O)N[C@@H](Cc1ccccc1)C(=O)OC(C)(C)C	24.3	0.82 µM [falling, single point]	–
Cc1ccc(NC(=O)C2CCN(C(=O)c3ccco3)CC2)cc1C	-6.41	5.17 µM [rising, single point]	–
CC(=O)Nc1ccc(N(C(=O)c2ccco2)C(C(=O)NC2CCCC2)c2ccncc2)cc1 (stereo not drawn)	10	0.092 µM [falling, full curve, poor fit]	–
COC(=O)c1cc(NC(=O)c2ccccc2)c(=O)oc1C/C=N\OCc1ccc(Cl)cc1Cl	-4.23	–	0.146 µM [falling, full curve, poor fit]
COc1ccccc1CN(C)CC(=O)Nc1ccc(Cl)cc1F	19.6	–	–
Cc1cc(OCC(=O)Nc2c(C)n(C)n(-c3ccccc3)c2=O)ccc1[N+](=O)[O-]	38.1	–	29.1 µM [rising, single point]
COc1ccccc1-n1cnnc1SCC(=O)Nc1ccccc1	4.2	29.1 µM [rising, single point]	–
O=C(CN(Cc1ccco1)S(=O)(=O)c1ccccc1)N/N=C/c1ccccc1C(=O)O	-2.63	0.116 µM [falling, full curve, poor fit]	–
Cc1ccc(S(=O)(=O)N(C)CCCC(=O)N2CCOCC2)cc1	-20.8	0.82 µM [falling, full curve]	–
O=C(NCCN1CCOCC1)c1ccc(CSc2nc3ccncc3n2Cc2ccc(F)cc2)cc1	-0.578	0.58 µM [rising, full curve, poor fit]	–
CN(CC(=O)Nc1cccc(F)c1)C(=O)/C=C/c1cc(Br)ccc1OC(F)F	93.9	–	16.4 µM [rising, partial curve]
COc1ccc(-c2cc(-c3ccccc3)n[nH]2)c(O)c1	-44.9	–	0.82 µM [falling, full curve, poor fit]

SMILES	cell number change [%]	AC50 [1]	AC50 [2]
CCC(C)/C(C)=N/NC(=O)CSc1nc2ccccc2[nH]1 (stereo not drawn)	–	1.46 µM [rising, partial curve]	1.46 µM [rising, single point]
CN1C(=O)N(C)c2cccc3cccc1c23	25.4	–	–
O=C(Nc1nc(-c2cccnc2)cs1)c1ccccc1Cl	–	6.51 µM [rising, single point]	1.46 µM [rising, single point]
Nc1nnc(-c2cc3c(ccc4ccccc43)oc2=O)s1	16.7	0.116 µM [rising, full curve, poor fit]	0.103 µM [rising, full curve, poor fit]
COC(=O)C1CCN(CC(=O)N(C)c2c(N)n(Cc3ccccc3)c(=O)[nH]c2=O)CC1	8.54	–	–
COc1ccc(/C=C/C(=O)OC(C)C(=O)c2ccccc2)cc1OC (stereo not drawn)	–	9.2 µM [rising, partial curve]	–
CCOC(=O)[C@@H]1[C@H]2COc3ccc(Br)cc3[C@@H]2N2C(=O)N(c3ccc(C)cc3)C(=O)[C@]12C	27.2	6.51 µM [rising, single point]	–
CC(C)(C)c1ccc(C(=O)Nc2ccc(S(N)(=O)=O)cc2)cc1	-49.7	18.4 µM [falling, single point]	20.6 µM [falling, single point]
COc1ccc(Cn2nnnc2CN(Cc2cc3cc(C)ccc3[nH]c2=O)C2CCCC2)cc1	–	0.651 µM [rising, single point]	–
COc1ccc(C2=NN(c3nc4ccccc4s3)C(=O)/C2=C\N(C)C)cc1	-0.705	–	–
COc1ccccc1NC(=O)NCCCCc1ccccc1	-21	35.5 µM [falling, single point]	–
CCc1nc(SCC(=O)Nc2ccccc2C)n[nH]1	-16.8	–	4.61 µM [rising, single point]
CSc1ccccc1C(=O)NCCOc1cccc(C)c1	11.8	–	–
COc1ccc(-n2c(SCC(=O)NCc3ccco3)nc3sc4c(c3c2=O)CCN(C)C4)cc1	15.6	29.1 µM [falling, single point]	–
CC(C)(CN1CCNCC1)NS(=O)(=O)c1ccc(Cl)cc1	-15.9	0.366 µM [rising, partial curve, poor fit]	0.461 µM [falling, single point]
CCOc1ccc(NC(=S)N2CCN(S(=O)(=O)c3ccccc3)CC2)cc1	13.3	5.17 µM [rising, full curve]	–
Cc1ccccc1OCC(O)CNC1CCC(NCC(O)COc2ccccc2C)CC1 (stereo not drawn)	-59.4	0.13 µM [falling, full curve, poor fit]	29.1 µM [falling, single point]
CCC(C)Nc1nc(N)c([N+](=O)[O-])c(NCc2ccccc2)n1 (stereo not drawn)	20.7	0.259 µM [falling, full curve]	0.184 µM [rising, single point]
COc1ccccc1Nc1ncnc2c1c(C)c(C)n2CCO	15.5	7.31 µM [falling, single point]	–
Cc1cccc(NC(=O)CSc2nnc(NC(=O)C3CCC3)s2)c1	0.42	–	–

SMILES	cell number change [%]	AC50 [1]	AC50 [2]
O=C(CN(C(=O)Cn1nnc(-c2cccs2)n1)c1ccc2c(c1)OCCO2)NC1CCCCC1	-9.04	–	0.00517 µM [falling, full curve, poor fit]
O=C(c1ccc2c3c(cccc13)CC2)C1CCCN(Cc2ccncc2)C1 (stereo not drawn)	-12.1	16.4 µM [falling, single point]	–
Cc1cccc(N2CCN(S(=O)(=O)c3c(C)nc4scc(C)n4c3=O)CC2)c1C	15.4	5.17 µM [rising, single point]	–
COc1ccccc1-c1nnc(SCC(=O)N2CCCCC2)o1	30	8.2 µM [rising, partial curve, poor fit]	0.082 µM [rising, full curve, poor fit]
CCOc1ccc2c(c1)C(c1ccc(C)cc1)=NNC(c1ccc(OC)cc1)=N2	11.8	–	1.16 µM [rising, partial curve]
CC(C)(C)N1CC(C(=O)Nc2ccc(C#N)cc2)CC1=O (stereo not drawn)	16.2	23.1 µM [falling, single point]	–
CC1(C)C=C(c2ccc(O)cc2)CC(C)(C)N1	-9.09	29.1 µM [rising, single point]	–
c1ccc2[nH]c(SCC3CCCCO3)nc2c1 (stereo not drawn)	20.1	–	0.291 µM [rising, partial curve, poor fit]
c1ccc(Cn2ncc3c(N4CCN(C(c5ccccc5)c5ccccc5)CC4)ncnc32)cc1	83.6	23.1 µM [rising, partial curve]	10.3 µM [rising, partial curve]
CC1CCN(C(=O)c2[nH]cnc2C(=O)N2CCN(C(=O)OC(C)(C)C)CC2)CC1	12	–	–
O=C1CC(c2ccc3c(c2)OCO3)c2cc3c(cc2N1)OCCO3 (stereo not drawn)	-39.1	29.1 µM [falling, single point]	18.4 µM [falling, single point]
CNCCOc1ccccc1OC(C)C	1.96	0.231 µM [rising, full curve]	–
COC(=O)c1oc(-c2ccccc2)nc1C	6.85	4.11 µM [rising, single point]	6.51 µM [rising, single point]
COc1cc2c(cc1/C=C/C(=O)O)OC(C)C2 (stereo not drawn)	20.4	0.731 µM [rising, partial curve, poor fit]	–
COc1cccc(C2C3=C(CCCC3=O)Nc3nc(-c4cc(OC)c(OC)c(OC)c4)nn32)c1 (stereo not drawn)	-33.8	29.1 µM [falling, single point]	13 µM [falling, single point]
Cc1nn(C)c(C)c1NC(=O)COc1ccc(Cl)cc1	-26.6	3.66 µM [falling, single point]	–
CO/N=C/c1cn(-c2ccc(Cl)cc2)nn1	-16.3	–	2.59 µM [falling, single point]
COC(=O)C1Cc2ccccc2CN1S(=O)(=O)c1ccc(F)cc1 (stereo not drawn)	14.6	–	–
COc1ccc(OC)c(NC(=O)COC(=O)C2CCC2)c1	-16.7	–	–
C/C(=N/NC(=O)CNC(=O)c1cccc(F)c1)c1ccc2c(c1)CCCC2	56.2	6.51 µM [rising, single point]	10.3 µM [rising, partial curve, poor fit]

Full records from above. Values in the order: cell number change [%] | AC50 [1] | AC50 [2]
COc1cccc(C2C3=C(CCCC3=O)Nc3nc(-c4cc(OC)c(OC)c(OC)c4)nn32)c1 (stereo not drawn) in the list: -33.8 | 29.1 µM [falling, single point] | 13 µM [falling, single point]
CCOc1ccc2c(c1)C(c1ccc(C)cc1)=NNC(c1ccc(OC)cc1)=N2 in the list: 11.8 | – | 1.16 µM [rising, partial curve]
c1ccc2[nH]c(SCC3CCCCO3)nc2c1 (stereo not drawn) in the list: 20.1 | – | 0.291 µM [rising, partial curve, poor fit]
c1ccc(Cn2ncc3c(N4CCN(C(c5ccccc5)c5ccccc5)CC4)ncnc32)cc1 in the list: 83.6 | 23.1 µM [rising, partial curve] | 10.3 µM [rising, partial curve]
